Values of other authors in article PMC9540496 (Clinical Pharmacology and Therapeutics, 2022).

Settings: P‐gp interaction, dabigatran labeling; cited from earlier work

With `CCCCc1oc2ccccc2c1C(=O)c1cc(I)c(OCCN(CC)CC)c(I)c1` [amiodarone] as the compound, how does the “increase of dabigatran exposures” value read?
Its value is 50–60%.
